The source of these data is publication PMC4046919.

Chains of the proteins cited; added tags and fusions are not shown. Lines headed by an entry give the natural chain unless they say otherwise; changes in a name come on top.
UniProt Q9WTI7: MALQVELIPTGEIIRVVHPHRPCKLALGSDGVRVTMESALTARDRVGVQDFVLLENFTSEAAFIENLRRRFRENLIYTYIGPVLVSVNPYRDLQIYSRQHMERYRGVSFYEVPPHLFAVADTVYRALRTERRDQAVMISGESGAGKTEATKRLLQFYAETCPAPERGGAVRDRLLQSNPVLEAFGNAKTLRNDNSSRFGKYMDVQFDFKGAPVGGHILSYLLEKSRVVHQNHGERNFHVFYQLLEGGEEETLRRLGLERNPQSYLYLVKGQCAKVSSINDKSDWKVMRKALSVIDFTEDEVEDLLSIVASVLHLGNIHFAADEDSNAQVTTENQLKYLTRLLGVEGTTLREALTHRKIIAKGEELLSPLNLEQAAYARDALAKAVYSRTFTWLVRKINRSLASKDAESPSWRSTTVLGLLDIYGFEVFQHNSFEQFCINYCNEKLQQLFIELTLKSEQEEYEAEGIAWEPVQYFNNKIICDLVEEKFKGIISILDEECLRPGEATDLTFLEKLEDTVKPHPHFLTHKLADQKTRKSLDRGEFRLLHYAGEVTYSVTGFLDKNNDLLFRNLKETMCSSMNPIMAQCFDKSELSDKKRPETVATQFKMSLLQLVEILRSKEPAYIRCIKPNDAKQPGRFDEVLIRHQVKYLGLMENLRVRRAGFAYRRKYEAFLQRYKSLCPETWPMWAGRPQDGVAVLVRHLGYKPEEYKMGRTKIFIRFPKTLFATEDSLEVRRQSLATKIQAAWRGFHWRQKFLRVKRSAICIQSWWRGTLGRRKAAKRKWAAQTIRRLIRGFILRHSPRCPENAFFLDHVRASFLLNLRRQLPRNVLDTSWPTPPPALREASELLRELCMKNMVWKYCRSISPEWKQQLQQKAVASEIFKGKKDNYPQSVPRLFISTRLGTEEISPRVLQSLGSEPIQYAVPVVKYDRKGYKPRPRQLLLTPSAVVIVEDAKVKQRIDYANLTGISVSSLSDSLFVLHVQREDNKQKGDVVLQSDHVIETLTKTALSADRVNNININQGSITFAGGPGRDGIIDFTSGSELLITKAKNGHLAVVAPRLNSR
UniProt P49841: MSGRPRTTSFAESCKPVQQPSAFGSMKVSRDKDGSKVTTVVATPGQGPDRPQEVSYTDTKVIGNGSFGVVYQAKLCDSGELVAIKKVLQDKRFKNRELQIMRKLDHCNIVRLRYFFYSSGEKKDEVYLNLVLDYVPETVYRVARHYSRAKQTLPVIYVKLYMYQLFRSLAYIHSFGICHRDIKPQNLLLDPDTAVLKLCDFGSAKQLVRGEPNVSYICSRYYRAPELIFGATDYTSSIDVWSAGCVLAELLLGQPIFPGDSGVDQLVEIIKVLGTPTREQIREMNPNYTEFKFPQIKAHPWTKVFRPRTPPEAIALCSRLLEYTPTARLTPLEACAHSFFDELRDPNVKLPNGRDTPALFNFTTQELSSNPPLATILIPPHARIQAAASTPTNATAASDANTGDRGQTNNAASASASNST

In assay [1] the target is V5-tagged NM1 mutant with impaired actin binding function (V5-RK605AA NM1) (UniProt Q9WTI7). Nature of the assay: co-IP; total lysates of HEK293T cells stably expressing V5-tagged NM1 constructs; anti-V5 antibody and Protein G Sepharose; beads washed with 1X PBS, 1 mM PMSF, 0.2% NP-40; endogenous GSK3β detected on immunoblots with CGR11. On the technique in general: A western blot detects proteins with antibodies after separation by electrophoresis.

In assay [2] the target is V5-tagged NM1 deletion construct that lacks IQ motifs (V5-ΔIQ NM1) (UniProt Q9WTI7). The assay is described as above.

These are yes or no findings as the source states them, for the method shown. Binding seen in cells or lysates may run through a third protein. For some assays here: Binding calls can cover weak binding; strength is not graded here.

“glycogen synthase kinase (GSK) 3β, endogenous, human (from UniProt P49841 1-420) (enzyme)”: the binding entry is listed as “no binding” in assay [1] and “binds” in assay [2].
